Measured values taken from patent publication EP2028187A1 (BOARD OF REGENTS, THE UNIVERSITY OF TEXAS SYSTEM, dated 2009).
These are yes or no findings as the source states them, for the method shown. Some results given as binding are weak or reduced against the parent protein; the word gives no strength.

By UniProt entry, the sequences of proteins in these tests, tags left out. Where a name states a change or a piece, a line headed by the entry shows the natural chain unless it says otherwise. Residues count along the entry.
UniProt P08758, residues 2-320: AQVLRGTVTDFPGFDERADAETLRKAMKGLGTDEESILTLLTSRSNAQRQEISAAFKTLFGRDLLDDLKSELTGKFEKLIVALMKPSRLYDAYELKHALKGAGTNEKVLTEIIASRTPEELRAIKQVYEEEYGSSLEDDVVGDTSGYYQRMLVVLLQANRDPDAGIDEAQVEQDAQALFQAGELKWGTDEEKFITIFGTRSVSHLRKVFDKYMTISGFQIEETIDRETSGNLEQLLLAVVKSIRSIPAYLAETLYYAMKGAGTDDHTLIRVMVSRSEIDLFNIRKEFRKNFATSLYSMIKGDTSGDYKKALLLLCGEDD
UniProt P18084: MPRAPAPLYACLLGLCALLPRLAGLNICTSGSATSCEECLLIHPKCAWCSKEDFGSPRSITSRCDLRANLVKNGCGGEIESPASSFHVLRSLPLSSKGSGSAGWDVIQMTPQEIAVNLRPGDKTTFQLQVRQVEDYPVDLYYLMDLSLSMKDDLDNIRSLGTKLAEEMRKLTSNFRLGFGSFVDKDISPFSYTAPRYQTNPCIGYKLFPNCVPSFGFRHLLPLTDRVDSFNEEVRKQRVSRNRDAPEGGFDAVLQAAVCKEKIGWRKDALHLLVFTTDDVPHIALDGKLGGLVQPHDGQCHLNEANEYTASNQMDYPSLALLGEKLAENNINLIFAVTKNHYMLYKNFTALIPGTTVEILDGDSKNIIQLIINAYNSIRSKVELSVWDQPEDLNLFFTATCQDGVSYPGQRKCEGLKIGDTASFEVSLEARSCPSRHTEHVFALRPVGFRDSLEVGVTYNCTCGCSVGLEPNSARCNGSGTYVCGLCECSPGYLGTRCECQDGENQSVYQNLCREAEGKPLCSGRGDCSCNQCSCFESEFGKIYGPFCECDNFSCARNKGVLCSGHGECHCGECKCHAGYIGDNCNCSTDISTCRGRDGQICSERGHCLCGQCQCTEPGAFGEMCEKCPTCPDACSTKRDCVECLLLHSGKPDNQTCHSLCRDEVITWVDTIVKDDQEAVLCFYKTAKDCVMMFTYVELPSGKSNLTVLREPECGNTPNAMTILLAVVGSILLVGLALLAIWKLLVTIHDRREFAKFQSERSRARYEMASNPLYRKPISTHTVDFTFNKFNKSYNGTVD

Assays:
[1] = target: Annexin V (UniProt P08758); experiment: ELISA, plates coated with Annexin V, GST fusion proteins detected with anti-GST fusion protein antibodies (not shown)
[2] = target: GST-β5cyto (GST fusion protein of the integrin β5 cytoplasmic domain) (UniProt P18084); experiment: ELISA, plates coated with GST-β5, Annexin V detected with anti-Annexin V antibodies

| binding [1] | binding [2] | Substance |
| --- | --- | --- |
| binds |  | GST-β5cyto (GST fusion protein of the integrin β5 cytoplasmic domain) (from UniProt P18084 749-799) |
|  | binds | Annexin V (from UniProt P08758 2-320) |
